Record: PubChem BioAssay AID1259308 (NCATS, 2017)

Aim: 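Knock-downs that increase output of a recombinant reporter protein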 (primary screen)
Cells: human HEK293 embryonic kidney cells stably expressing firefly luciferase (HEK-CMV-Luc2-Hygro)
Reagent: single siRNA against human genes, 0.8 pmol siRNA per well
Timing: 72 h
Read-out: 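Reporter luminescence and viable-cell signal on separate replicate plates, given as percent of non-targeting control and median/MAD z-scores, plus per-cell luciferase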
Reading the numbers: total luciferase, z-score: higher = more reporter protein produced
Active means: 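Active when the median/MAD z-score for overall luciferase is greater than 3; a gene was taken forward for validation with new siRNAs if at least two of its three siRNAs passed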
Meaning of the calls: active = raised luciferase; inactive = no rise
In all, the deposit lists about 59,000 reagents; below is a part drawn at random. In the full data, about 1,510 (2.6%) are marked active. 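Calls use total luciferase alone and ignore viability, so some active siRNAs may act by altering cell number.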 The numbers tell different reagents against one gene apart. Further read-outs or replicates are left out here.

{"target":"CALU (calumenin)","siRNA no.":1,"total luciferase, z-score":0.299,"Outcome":"inactive"}
{"target":"CALU (calumenin)","siRNA no.":2,"total luciferase, z-score":-0.0861,"Outcome":"inactive"}
{"target":"CALU (calumenin)","siRNA no.":3,"total luciferase, z-score":0.138,"Outcome":"inactive"}
{"target":"RPL39 (ribosomal protein L39)","siRNA no.":1,"total luciferase, z-score":-2.61,"Outcome":"inactive"}
{"target":"RPL39 (ribosomal protein L39)","siRNA no.":2,"total luciferase, z-score":-2.34,"Outcome":"inactive"}
{"target":"RPL39 (ribosomal protein L39)","siRNA no.":3,"total luciferase, z-score":-1.53,"Outcome":"inactive"}
{"target":"FOS (Fos proto-oncogene, AP-1 transcription factor subunit)","siRNA no.":1,"total luciferase, z-score":-0.653,"Outcome":"inactive"}
{"target":"FOS (Fos proto-oncogene, AP-1 transcription factor subunit)","siRNA no.":2,"total luciferase, z-score":0.0622,"Outcome":"inactive"}
{"target":"FOS (Fos proto-oncogene, AP-1 transcription factor subunit)","siRNA no.":3,"total luciferase, z-score":2.95,"Outcome":"inactive"}
{"target":"PROB1 (proline rich basic protein 1)","siRNA no.":1,"total luciferase, z-score":-0.27,"Outcome":"inactive"}
{"target":"PROB1 (proline rich basic protein 1)","siRNA no.":2,"total luciferase, z-score":2.73,"Outcome":"inactive"}
{"target":"PROB1 (proline rich basic protein 1)","siRNA no.":3,"total luciferase, z-score":-0.0676,"Outcome":"inactive"}

2 entries already listed, ordered by “total luciferase, z-score”, descending:
{"target":"CALU (calumenin)","siRNA no.":1,"total luciferase, z-score":0.299,"Outcome":"inactive"}
{"target":"CALU (calumenin)","siRNA no.":2,"total luciferase, z-score":-0.0861,"Outcome":"inactive"}

Next reagents follow:
{"target":"EID2 (EP300 interacting inhibitor of differentiation 2)","siRNA no.":1,"total luciferase, z-score":0.0726,"Outcome":"inactive"}
{"target":"EID2 (EP300 interacting inhibitor of differentiation 2)","siRNA no.":2,"total luciferase, z-score":-0.25,"Outcome":"inactive"}
{"target":"EID2 (EP300 interacting inhibitor of differentiation 2)","siRNA no.":3,"total luciferase, z-score":-0.305,"Outcome":"inactive"}
{"target":"SYP (synaptophysin)","siRNA no.":1,"total luciferase, z-score":0.921,"Outcome":"inactive"}
{"target":"SYP (synaptophysin)","siRNA no.":2,"total luciferase, z-score":0.16,"Outcome":"inactive"}
{"target":"SYP (synaptophysin)","siRNA no.":3,"total luciferase, z-score":0.604,"Outcome":"inactive"}
{"target":"MAP3K13 (mitogen-activated protein kinase kinase kinase 13)","siRNA no.":1,"total luciferase, z-score":0.268,"Outcome":"inactive"}
{"target":"MAP3K13 (mitogen-activated protein kinase kinase kinase 13)","siRNA no.":2,"total luciferase, z-score":0.904,"Outcome":"inactive"}
{"target":"MAP3K13 (mitogen-activated protein kinase kinase kinase 13)","siRNA no.":3,"total luciferase, z-score":-1.49,"Outcome":"inactive"}
